From the supplement of paper PMC12823440, “Inhibitors supercharge kinase turnover through native proteolytic circuits” (Nature, 2025)
Where a name gives a salt, the structure may show the parent alone. Some of the results follow. The calls rarely recur for the same compound in another form.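 In K562 cells expressing nanoluciferase-fused kinases, luminescence was recorded at 4 h intervals between 2 and 18 h, normalized as percent of control with DMSO at 100% and a positive control at 0%. A significant (2 sigma) signal drop marks a time point as decreased. The authors' rule for a hit is not shown and takes in more than the number of time points.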

The chains behind the UniProt entries cited, without tags or fusion partners. Where a name states a change or a piece, a line headed by the entry shows the natural chain unless it says otherwise.
UniProt O96013: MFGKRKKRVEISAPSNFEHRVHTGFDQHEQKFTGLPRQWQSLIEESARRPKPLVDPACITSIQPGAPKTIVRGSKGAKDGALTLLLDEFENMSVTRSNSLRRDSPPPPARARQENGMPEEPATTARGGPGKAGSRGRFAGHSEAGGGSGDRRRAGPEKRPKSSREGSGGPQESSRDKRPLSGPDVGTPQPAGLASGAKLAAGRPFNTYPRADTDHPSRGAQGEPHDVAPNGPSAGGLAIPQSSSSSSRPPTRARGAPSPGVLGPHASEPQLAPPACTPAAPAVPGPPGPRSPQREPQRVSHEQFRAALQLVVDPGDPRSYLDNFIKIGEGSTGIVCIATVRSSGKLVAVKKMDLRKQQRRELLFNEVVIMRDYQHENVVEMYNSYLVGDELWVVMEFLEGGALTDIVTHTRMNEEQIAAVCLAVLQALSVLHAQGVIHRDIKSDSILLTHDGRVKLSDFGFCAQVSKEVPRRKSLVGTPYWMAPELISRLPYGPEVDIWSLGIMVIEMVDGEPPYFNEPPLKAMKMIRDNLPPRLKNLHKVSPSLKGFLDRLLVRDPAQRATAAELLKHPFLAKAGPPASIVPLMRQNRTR
UniProt Q96KB5: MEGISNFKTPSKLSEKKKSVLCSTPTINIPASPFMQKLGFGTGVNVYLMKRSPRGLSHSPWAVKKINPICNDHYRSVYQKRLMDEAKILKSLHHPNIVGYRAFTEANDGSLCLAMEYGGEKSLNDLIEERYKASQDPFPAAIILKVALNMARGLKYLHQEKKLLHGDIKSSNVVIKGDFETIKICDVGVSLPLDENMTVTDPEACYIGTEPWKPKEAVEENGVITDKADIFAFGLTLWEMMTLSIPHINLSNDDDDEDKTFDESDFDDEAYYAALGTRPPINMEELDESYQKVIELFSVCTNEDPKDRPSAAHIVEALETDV
UniProt P09619, whole entry: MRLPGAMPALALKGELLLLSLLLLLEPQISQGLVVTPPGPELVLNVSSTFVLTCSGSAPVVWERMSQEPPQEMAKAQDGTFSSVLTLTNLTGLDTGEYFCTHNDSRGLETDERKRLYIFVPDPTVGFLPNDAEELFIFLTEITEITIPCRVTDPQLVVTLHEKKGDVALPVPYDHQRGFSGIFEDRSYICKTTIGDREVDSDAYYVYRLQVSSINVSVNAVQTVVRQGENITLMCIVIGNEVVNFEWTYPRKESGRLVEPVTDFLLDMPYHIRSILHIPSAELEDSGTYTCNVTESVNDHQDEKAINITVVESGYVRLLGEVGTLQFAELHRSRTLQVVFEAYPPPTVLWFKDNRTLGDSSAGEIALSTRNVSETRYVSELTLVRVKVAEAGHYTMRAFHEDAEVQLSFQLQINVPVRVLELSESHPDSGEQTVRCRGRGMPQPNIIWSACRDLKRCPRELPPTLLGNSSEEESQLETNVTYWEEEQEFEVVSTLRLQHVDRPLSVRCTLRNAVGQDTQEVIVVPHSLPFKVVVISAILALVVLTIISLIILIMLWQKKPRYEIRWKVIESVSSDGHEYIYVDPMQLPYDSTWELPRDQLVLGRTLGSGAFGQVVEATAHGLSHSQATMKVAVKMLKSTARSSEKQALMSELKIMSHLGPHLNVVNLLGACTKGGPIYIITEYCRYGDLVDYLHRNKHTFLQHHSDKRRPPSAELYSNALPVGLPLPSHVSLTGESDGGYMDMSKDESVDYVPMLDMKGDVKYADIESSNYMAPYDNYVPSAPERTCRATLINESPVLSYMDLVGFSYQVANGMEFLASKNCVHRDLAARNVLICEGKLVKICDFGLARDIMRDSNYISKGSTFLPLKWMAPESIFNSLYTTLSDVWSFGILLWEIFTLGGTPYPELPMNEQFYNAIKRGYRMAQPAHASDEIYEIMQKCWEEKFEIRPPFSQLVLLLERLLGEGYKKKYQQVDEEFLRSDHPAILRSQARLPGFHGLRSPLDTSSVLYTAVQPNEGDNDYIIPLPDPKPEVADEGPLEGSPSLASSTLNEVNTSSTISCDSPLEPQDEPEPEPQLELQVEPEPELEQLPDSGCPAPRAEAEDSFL
UniProt Q15118, whole entry, looked up: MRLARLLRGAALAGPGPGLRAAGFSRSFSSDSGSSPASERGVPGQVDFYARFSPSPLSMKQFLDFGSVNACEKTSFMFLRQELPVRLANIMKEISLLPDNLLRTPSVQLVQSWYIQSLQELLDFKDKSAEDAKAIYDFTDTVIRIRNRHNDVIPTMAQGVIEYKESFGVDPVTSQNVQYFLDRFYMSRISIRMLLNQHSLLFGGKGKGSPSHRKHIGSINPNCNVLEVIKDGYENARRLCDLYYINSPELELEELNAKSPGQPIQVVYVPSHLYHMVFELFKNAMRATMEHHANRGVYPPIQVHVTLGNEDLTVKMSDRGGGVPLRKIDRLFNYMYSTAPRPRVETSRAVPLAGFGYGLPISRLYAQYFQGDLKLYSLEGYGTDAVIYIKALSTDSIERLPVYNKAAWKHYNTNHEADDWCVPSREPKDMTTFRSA
UniProt O15530: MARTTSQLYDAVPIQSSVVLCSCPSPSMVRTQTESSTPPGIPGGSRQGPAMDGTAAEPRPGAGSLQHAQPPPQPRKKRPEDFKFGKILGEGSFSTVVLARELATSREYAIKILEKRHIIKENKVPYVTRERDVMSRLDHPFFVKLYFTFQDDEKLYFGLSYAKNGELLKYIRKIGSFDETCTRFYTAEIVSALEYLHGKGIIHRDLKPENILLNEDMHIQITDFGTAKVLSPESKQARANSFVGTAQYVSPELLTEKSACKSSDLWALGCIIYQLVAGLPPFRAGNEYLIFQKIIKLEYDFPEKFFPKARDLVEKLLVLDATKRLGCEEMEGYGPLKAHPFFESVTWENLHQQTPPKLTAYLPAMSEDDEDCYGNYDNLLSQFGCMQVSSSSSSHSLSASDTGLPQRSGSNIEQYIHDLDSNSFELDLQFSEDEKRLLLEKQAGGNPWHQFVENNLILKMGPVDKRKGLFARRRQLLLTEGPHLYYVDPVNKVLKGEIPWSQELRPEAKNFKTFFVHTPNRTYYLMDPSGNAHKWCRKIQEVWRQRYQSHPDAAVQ
UniProt P42356, whole entry, looked up: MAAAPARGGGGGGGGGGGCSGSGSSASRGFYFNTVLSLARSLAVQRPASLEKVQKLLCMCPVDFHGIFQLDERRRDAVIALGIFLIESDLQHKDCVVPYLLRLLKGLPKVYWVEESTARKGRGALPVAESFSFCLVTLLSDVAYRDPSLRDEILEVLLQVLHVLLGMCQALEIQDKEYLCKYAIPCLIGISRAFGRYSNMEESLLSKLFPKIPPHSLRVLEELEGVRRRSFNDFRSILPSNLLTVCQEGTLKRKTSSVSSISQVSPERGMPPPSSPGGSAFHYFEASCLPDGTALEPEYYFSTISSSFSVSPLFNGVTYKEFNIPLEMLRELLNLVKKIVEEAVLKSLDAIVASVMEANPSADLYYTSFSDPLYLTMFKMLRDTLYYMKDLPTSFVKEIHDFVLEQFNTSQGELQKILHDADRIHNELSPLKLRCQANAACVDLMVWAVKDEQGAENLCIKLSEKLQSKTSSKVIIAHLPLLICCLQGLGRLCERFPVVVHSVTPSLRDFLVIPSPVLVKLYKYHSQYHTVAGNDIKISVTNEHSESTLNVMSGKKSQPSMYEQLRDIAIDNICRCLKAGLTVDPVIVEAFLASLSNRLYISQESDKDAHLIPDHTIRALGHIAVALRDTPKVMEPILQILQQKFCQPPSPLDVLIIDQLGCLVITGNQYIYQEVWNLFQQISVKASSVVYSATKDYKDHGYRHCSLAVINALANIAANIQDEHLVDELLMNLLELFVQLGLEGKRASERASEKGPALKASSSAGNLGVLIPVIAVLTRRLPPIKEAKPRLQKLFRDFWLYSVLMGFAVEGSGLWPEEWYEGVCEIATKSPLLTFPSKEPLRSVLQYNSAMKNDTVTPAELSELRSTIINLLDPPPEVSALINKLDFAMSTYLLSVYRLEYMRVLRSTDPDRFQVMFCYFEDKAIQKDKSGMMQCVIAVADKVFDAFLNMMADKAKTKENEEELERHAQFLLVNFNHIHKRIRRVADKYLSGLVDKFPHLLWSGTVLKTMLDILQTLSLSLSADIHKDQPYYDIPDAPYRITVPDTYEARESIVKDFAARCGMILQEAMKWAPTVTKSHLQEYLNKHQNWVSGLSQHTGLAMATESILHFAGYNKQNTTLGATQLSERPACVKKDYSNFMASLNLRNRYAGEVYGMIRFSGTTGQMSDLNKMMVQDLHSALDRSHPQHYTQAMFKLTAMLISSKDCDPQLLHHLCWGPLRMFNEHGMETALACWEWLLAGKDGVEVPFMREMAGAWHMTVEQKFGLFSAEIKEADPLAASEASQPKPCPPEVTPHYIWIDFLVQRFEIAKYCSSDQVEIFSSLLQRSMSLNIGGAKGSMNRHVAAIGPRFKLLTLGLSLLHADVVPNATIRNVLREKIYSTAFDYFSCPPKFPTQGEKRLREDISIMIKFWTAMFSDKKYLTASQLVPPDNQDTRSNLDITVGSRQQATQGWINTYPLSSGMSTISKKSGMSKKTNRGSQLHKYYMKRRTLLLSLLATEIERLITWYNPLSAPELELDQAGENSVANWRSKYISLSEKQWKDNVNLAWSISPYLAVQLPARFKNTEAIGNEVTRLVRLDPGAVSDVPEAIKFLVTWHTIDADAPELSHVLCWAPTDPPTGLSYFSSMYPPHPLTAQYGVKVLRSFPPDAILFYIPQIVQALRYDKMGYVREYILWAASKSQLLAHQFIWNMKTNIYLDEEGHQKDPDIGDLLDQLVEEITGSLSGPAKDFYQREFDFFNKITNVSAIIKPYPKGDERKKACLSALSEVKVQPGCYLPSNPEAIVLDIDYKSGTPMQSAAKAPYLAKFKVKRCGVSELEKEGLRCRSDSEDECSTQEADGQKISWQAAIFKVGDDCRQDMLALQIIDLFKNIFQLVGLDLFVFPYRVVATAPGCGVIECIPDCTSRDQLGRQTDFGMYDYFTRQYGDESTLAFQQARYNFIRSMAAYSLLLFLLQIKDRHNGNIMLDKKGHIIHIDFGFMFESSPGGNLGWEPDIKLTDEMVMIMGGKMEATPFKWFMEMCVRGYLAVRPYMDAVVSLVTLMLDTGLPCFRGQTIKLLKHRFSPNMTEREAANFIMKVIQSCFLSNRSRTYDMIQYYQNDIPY
UniProt Q9UBF8: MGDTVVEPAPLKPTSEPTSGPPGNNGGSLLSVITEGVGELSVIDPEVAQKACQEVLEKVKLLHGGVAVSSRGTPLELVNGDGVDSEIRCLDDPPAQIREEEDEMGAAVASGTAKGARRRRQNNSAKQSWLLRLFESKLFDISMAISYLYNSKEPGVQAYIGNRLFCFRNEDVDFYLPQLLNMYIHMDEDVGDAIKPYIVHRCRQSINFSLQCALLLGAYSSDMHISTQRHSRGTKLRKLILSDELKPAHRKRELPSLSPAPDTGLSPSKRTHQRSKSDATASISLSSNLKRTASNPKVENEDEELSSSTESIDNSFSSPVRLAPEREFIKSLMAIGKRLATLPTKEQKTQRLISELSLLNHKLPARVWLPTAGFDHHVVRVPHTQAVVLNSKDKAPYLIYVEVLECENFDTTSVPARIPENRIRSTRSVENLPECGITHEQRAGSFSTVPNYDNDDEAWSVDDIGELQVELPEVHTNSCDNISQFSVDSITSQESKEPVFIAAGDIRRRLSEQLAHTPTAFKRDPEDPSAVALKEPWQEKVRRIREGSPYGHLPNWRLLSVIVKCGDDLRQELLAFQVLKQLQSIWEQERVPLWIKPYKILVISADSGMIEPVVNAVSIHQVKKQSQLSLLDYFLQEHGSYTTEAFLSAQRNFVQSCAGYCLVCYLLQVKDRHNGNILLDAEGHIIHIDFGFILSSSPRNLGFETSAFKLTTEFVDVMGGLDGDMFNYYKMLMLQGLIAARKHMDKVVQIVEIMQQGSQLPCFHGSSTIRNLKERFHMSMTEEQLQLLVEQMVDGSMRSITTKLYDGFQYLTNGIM
UniProt P53350, whole entry: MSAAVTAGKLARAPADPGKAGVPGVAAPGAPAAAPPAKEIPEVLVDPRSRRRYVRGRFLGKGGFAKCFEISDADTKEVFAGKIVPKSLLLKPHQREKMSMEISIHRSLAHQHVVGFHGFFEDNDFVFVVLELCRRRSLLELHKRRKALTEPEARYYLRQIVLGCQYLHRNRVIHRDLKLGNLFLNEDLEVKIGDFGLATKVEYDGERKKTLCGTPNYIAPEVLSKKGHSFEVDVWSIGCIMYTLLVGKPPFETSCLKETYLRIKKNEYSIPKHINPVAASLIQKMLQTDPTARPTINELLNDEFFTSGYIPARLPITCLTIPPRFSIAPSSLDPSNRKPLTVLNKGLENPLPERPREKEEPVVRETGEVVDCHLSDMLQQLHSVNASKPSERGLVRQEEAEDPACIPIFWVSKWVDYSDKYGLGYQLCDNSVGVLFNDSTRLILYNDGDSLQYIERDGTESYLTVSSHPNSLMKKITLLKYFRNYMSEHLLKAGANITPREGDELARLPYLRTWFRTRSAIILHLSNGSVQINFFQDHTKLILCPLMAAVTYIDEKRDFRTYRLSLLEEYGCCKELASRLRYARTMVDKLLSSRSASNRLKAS

Columns and labels:
Assay in all cases: number of time points (of 5) at which kinase-Nluc abundance scored as decreased, DMSO-normalised (count); higher = more persistent destabilization
Details in all cases: K562; 2-18 h
[1] = target: NTRK3 (UniProt Q16288)
[2] = target: PAK4 (UniProt O96013)
[3] = target: PBK (UniProt Q96KB5)
[4] = target: PDGFRB (UniProt P09619)
[5] = target: PDK1 (UniProt Q15118)
[6] = target: PDPK1 (UniProt O15530)
[7] = target: PIK4CA (UniProt P42356)
[8] = target: PIK4CB (UniProt Q9UBF8)
[9] = target: PLK1 (UniProt P53350)
[10] = target: PRKAA1 (UniProt Q13131)

SMILES | number of time points [1] | number of time points [2] | number of time points [3] | number of time points [4] | number of time points [5] | number of time points [6] | number of time points [7] | number of time points [8] | number of time points [9] | number of time points [10]
CC(C)(C)S(=O)(=O)c1ccc2nccc(Nc3n[nH]c4ccc(F)cc34)c2c1 (10 µM) | 0 | 0 | 0 | 0 | 0 | 0 | 0 | 0 | 0 | 0
COc1ccc(C(=O)c2cn(C(C)C)c3ncnc(N)c23)cc1NC(=O)Nc1ccc(Cl)cc1Cl (10 µM) | 0 | 0 | 0 | 0 | 0 | 0 | 0 | 0 | 0 | 0
CN1CCN(c2ccc(NC(=O)c3ccc(C#N)o3)c(N3CCCCC3)c2)CC1 (10 µM) | 0 | 0 | 0 | 0 | 0 | 0 | 0 | 0 | 0 | 0
CC(=O)c1cc(O)ccc1O [2,5-Dihydroxyacetophenone] (10 µM) | 0 | 0 | 0 | 0 | 0 | 0 | 0 | 0 | 0 | 0
O=C(NCc1cccc(O)c1)c1cc2cc(F)ccc2[nH]1 (10 µM) | 0 | 0 | 0 | 0 | 0 | 0 | 0 | 0 | 0 | 0
CNS(=O)(=O)C[C@H]1CC[C@H](N(C)c2[nH]cnc3nccc2-3)CC1 [Oclacitinib (maleate)] (10 µM) | 0 | 0 | 0 | 0 | 0 | 0 | 0 | 0 | 0 | 0
C[C@@H]1CN(CC(=O)Nc2ccc3c(c2)Cc2cccc(-c4cc(=O)cc(N5CCOCC5)o4)c2S3)C[C@H](C)O1 (2.5 µM) | 0 | 0 | 0 | 0 | 0 | 0 | 0 | 0 | 0 | 0
CCC(=O)N1CC[C@H](Nc2ncnc3c2CN(c2cnc(OC)c(C(F)(F)F)c2)CC3)C1 [Leniolisib] (10 µM) | 0 | 0 | 0 | 0 | 0 | 0 | 0 | 0 | 0 | 0
O=C1C(=Cc2ccc(O)c(O)c2)Oc2ccccc21 (2.5 µM) | 0 | 0 | 0 | 0 | 0 | 0 | 0 | 0 | 0 | 0
CNC(=O)c1nnc(NC(=O)C2CC2)cc1Nc1cccc(-c2ncn(C)n2)c1OC [Deucravacitinib] (10 µM) | 0 | 0 | 0 | 0 | 0 | 0 | 0 | 0 | 0 | 0
CCc1nc(C(N)=O)c(Nc2ccc(N3CCC(N4CCN(C)CC4)CC3)c(OC)c2)nc1NC1CCC(OC)CC1 (stereo not given) [EML4-ALK kinase inhibitor 1] (2.5 µM) | 0 | 0 | 0 | 0 | 0 | 0 | 0 | 0 | 0 | 0
C[C@H](Nc1ccc2c(c1)OCCn1cc(N3C(=O)OC[C@H]3C(F)F)nc1-2)C(N)=O (10 µM) | 0 | 0 | 0 | 0 | 0 | 0 | 0 | 0 | 0 | 0
Cn1cc(-c2cn3nccc3c(-c3cnn([C@]4(CC#N)C[C@@H](C#N)C4)c3)n2)cn1 (10 µM) | 0 | 0 | 0 | 0 | 0 | 0 | 0 | 0 | 0 | 0
CC(C)(C)NS(=O)(=O)c1cncc(-c2cc(F)c3nc(N)nn3c2)c1 (10 µM) | 0 | 0 | 0 | 0 | 0 | 0 | 0 | 0 | 0 | 0
CNS(=O)(=O)Nc1nccc(Cc2c(C)c3ccc(Oc4ncccn4)cc3oc2=O)c1F (10 µM) | 0 | 0 | 0 | 1 | 0 | 1 | 0 | 0 | 0 | 1
N#Cc1cn([C@@H]2O[C@H](CO)[C@@H](O)[C@H]2O)c2nc[nH]c(=O)c12 [Jaspamycin] (10 µM) | 0 | 0 | 0 | 0 | 0 | 0 | 0 | 0 | 0 | 0

SMILES | number of time points [1] | number of time points [2] | number of time points [3] | number of time points [4] | number of time points [5] | number of time points [6] | number of time points [7] | number of time points [8] | number of time points [9] | number of time points [10]
CS(=O)(=O)N1CCc2c(-c3cnc(N)nc3)nc(N3CCOCC3)nc21 (10 µM) | 0 | 0 | 0 | 0 | 0 | 1 | 0 | 0 | 0 | 0
Clc1ccc(Nc2cccc(-c3cn[nH]c3)c2)cc1 (10 µM) | 0 | 0 | 0 | 0 | 0 | 0 | 0 | 0 | 0 | 0
C[C@@H](N)COc1ccc(-c2cnc3ccc(N[C@H](C)c4cccc(F)c4)nn23)cc1 [Taletrectinib] (2.5 µM) | 0 | 0 | 0 | 0 | 0 | 0 | 0 | 0 | 0 | 0
Nc1n[nH]c(N)c1N=Nc1ccc(O)cc1 (10 µM) | 0 | 0 | 0 | 0 | 0 | 0 | 0 | 0 | 0 | 0
CC(C)n1nc(C#Cc2ccccc2)c2c(N)ncnc21 (10 µM) | 0 | 0 | 0 | 0 | 0 | 3 | 0 | 1 | 1 | 2
COC(=O)/C=C/c1ccc(O)c(OC)c1 [Ferulic acid methyl ester] (10 µM) | 0 | 0 | 0 | 0 | 0 | 0 | 0 | 0 | 0 | 0
C[C@]1(O)C[C@@](N)(c2ccc(-c3nc4n(c3-c3ccccc3)COc3ccncc3-4)cc2)C1 [TAS-117 (hydrochloride)] (10 µM) | 0 | 0 | 0 | 0 | 0 | 0 | 0 | 0 | 0 | 0
Cc1cccc(Cn2nc(C)c3c(NC(=O)c4csc5c(N)ncnc45)cccc32)n1 (10 µM) | 0 | 0 | 0 | 0 | 0 | 0 | 0 | 0 | 0 | 0
COc1cccc2cc(-c3nc([C@H]4CC[C@H](C(=O)O)CC4)n4ncnc(N)c34)[nH]c12 (2.5 µM) | 4 | 0 | 0 | 4 | 0 | 4 | 4 | 2 | 3 | 2
Cc1ccc(Nc2c(C(N)=O)cnc3cc(-c4ccncc4)ccc23)cc1C [cFMS Receptor Inhibitor II] (10 µM) | 0 | 0 | 0 | 0 | 0 | 0 | 0 | 0 | 0 | 0
CC(C)(C)S(=O)(=O)c1cc2c(Nc3ccc4scnc4c3)ccnc2cc1OCCOCCOCCOCCOCC(=O)Nc1cccc2c1CN(C1CCC(=O)NC1=O)C2=O (stereo not given) [PROTAC RIPK degrader-6] (10 µM) | 0 | 0 | 0 | 0 | 0 | 0 | 0 | 0 | 0 | 0
COc1ccc(S(=O)(=O)N(CCO)c2ccccc2CN(C)CC=Cc2ccc(Cl)cc2)cc1 (2.5 µM) | 0 | 0 | 0 | 0 | 0 | 0 | 0 | 0 | 0 | 0
C=CCN(/C=C1/C(=O)O[C@H](COC)[C@@]2(C)C1=C(O)C(=O)C1=C2[C@H](OC(C)=O)C[C@]2(C)C(=O)CC[C@@H]12)CC=C [Sonolisib] (2.5 µM) | 0 | 0 | 0 | 0 | 0 | 0 | 0 | 0 | 0 | 0
NC(=O)c1nc(-c2c(F)cccc2Cl)oc1Nc1ccc(C(=O)N2CCOCC2)cc1 (10 µM) | 0 | 0 | 0 | 0 | 0 | 0 | 0 | 0 | 0 | 0
O=C(Nc1cc(Cl)cc(Cl)c1)Nc1cc(Cl)cc(Cl)c1 (10 µM) | 0 | 0 | 0 | 0 | 0 | 0 | 0 | 3 | 0 | 0
O=C1c2c(O)cc(O)cc2O[C@H](c2cc(O)c(O)c(O)c2)[C@H]1O [Dihydromyricetin] (10 µM) | 0 | 0 | 0 | 0 | 0 | 0 | 0 | 0 | 0 | 0

Three structures out of the list, sorted by SMILES length, low to high.
SMILES | number of time points [1] | number of time points [2] | number of time points [3] | number of time points [4] | number of time points [5] | number of time points [6] | number of time points [7] | number of time points [8] | number of time points [9] | number of time points [10]
COC(=O)/C=C/c1ccc(O)c(OC)c1 [Ferulic acid methyl ester] (10 µM) | 0 | 0 | 0 | 0 | 0 | 0 | 0 | 0 | 0 | 0
Clc1ccc(Nc2cccc(-c3cn[nH]c3)c2)cc1 (10 µM) | 0 | 0 | 0 | 0 | 0 | 0 | 0 | 0 | 0 | 0
COc1ccc(S(=O)(=O)N(CCO)c2ccccc2CN(C)CC=Cc2ccc(Cl)cc2)cc1 (2.5 µM) | 0 | 0 | 0 | 0 | 0 | 0 | 0 | 0 | 0 | 0
